Data: patent US10653658B2, “Biofilm inhibiting compositions enhancing weight gain in livestock” (Akeso Biomedical, Inc., priority 2015, dated 2020)

Details: 0.2 g/L in drinking water; weaner pigs

## CC(O)C(=O)O.CC(O)C(=O)O.CC(O)C(=O)O.[Fe] (centres unmarked) [Fe-Lac, ferric lactate]
  Daily averaged water intake, days 0 to 4 post weaning: 641 g/day/pig
  Daily averaged water intake, days 0 to 7 post weaning: 746 g/day/pig
  Daily averaged water intake, days 0 to 14 post weaning: 1040 g/day/pig
  Daily averaged water intake, days 4 to 7 post weaning: 885 g/day/pig
  Daily averaged water intake, days 7 to 14 post weaning: 1335 g/day/pig
